PubChem BioAssay AID652243 – Drosophila RNAi Screening Center – 2013
Assay: 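Knock-downs that decrease or increase androgen receptor reporter signal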 (primary screen). System: Drosophila S2R+ cells. Reagent: long dsRNA against Drosophila genes. Timing: 72 h (48 h, then 24 h hormone). Conditions: synthetic androgen R1881 at 10 nM for 24 h. Read-out: 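Firefly light from an androgen-responsive reporter and Renilla control light per well, raw and unnormalised, for each of two replicates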. Reading the numbers: firefly reporter light: higher = more light from androgen-responsive reporter; Renilla control light: higher = more constitutive control signal (cell number, transfection). Hit rule: 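Hit when the log firefly-to-Renilla ratio dropped or increased by a fixed fold versus the mean of GFP or LacZ controls across duplicate plates; lowering cut given as 1.5 and as 3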. Meaning of the calls: active = hit: reporter lowered or raised; inactive = no hit.
The deposit covers about 24,000 reagents; below is a random part of those with a known target gene and a result. Over the whole deposit, 246 (1%) were called active. 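Plates not normalised; calls are printed but the firefly/Renilla ratio behind them is not deposited; fold cut for lowering reported inconsistently.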 Raw values vary from plate to plate and are shown uncorrected. Reagents against one gene are numbered here. No sequences are given here. Not stated in the record: the amount of reagent.

gene	reagent	firefly reporter light, replicate 1	firefly reporter light, replicate 2	Renilla control light, replicate 1	Renilla control light, replicate 2	call
dpr1	1	1.62e5	1.59e5	1.69e6	1.84e6	inactive
CG12831	1	2.17e5	2.67e5	2.03e6	1.51e6	inactive
Buffy	1	3.49e5	3.24e5	2.06e6	1.79e6	inactive
CR41243	1	6.94e5	6.15e5	1.85e6	1.66e6	inactive
Hr96	1	86940	79878	6.55e5	5.87e5	inactive
CG11898	1	5.59e5	5.44e5	1.97e6	1.16e6	inactive
CG11898	2	4.78e5	4.61e5	1.57e6	1.34e6	inactive
tapas	1	1.11e6	1.17e6	1.30e6	8.64e5	inactive
swa	1	1.20e5	1.12e5	7.88e5	5.76e5	inactive
swa	2	4.45e5	5.95e5	7.39e5	5.21e5	inactive
CG34447	1	82464	1.24e5	5.40e5	8.43e5	inactive
ng4	1	3.28e5	3.36e5	4.34e6	3.97e6	inactive
sog	1	4.82e5	4.08e5	3.19e6	3.00e6	inactive
Mccc2	1	3.46e5	2.86e5	1.55e6	1.90e6	inactive
Cp16	1	2.45e5	2.50e5	2.47e6	2.60e6	inactive
Cp16	2	8.57e5	5.52e5	6.93e5	4.71e5	inactive
CG9344	1	3.35e5	4.42e5	2.14e6	2.21e6	inactive
mim	1	3.48e5	5.03e5	1.30e6	1.78e6	inactive
mim	2	2.77e5	1.80e5	5.17e5	4.68e5	inactive
Phm	1	8.08e5	7.19e5	1.69e6	2.20e6	inactive
Atg2	1	1.42e6	7.54e5	2.60e6	1.47e6	inactive
CG13133	1	1.54e5	1.17e5	1.27e6	1.38e6	inactive
Pka-C2	1	98087	71564	1.24e6	1.27e6	inactive
Pka-C2	2	6.69e5	7.05e5	7.03e5	8.24e5	inactive
Pka-C2	3	4.74e5	4.45e5	1.54e6	1.73e6	inactive
CG1738	1	3.00e5	3.56e5	2.93e6	3.34e6	inactive
CG1738	2	9.11e5	7.36e5	1.35e6	1.48e6	inactive
Tsp42Eo	1	3.34e5	3.29e5	2.01e6	1.79e6	inactive
Pcf11	1	3.01e5	2.50e5	2.56e5	3.13e5	inactive
CG11668	1	1.47e5	1.91e5	2.36e6	2.96e6	inactive
Usp7	1	1.80e6	8.80e5	2.98e6	1.07e6	inactive
Usp7	2	4.85e5	5.76e5	3.21e6	3.02e6	inactive
Usp7	3	2.96e5	3.66e5	6.33e5	4.20e5	inactive
CG11159	1	85279	86696	1.48e6	1.66e6	inactive
CG15219	1	4.32e5	4.36e5	2.36e6	2.11e6	inactive
CG8031	1	79282	37499	7.36e5	5.16e5	inactive
CG12024	1	7.61e5	3.68e5	1.62e6	8.80e5	inactive
CG12024	2	2.66e5	2.52e5	5.86e5	7.59e5	inactive
CG12024	3	8.20e5	7.37e5	1.72e6	2.13e6	inactive
Vmat	1	8.35e5	1.17e6	2.71e6	2.69e6	inactive
Vmat	2	1.54e5	1.76e5	2.73e6	2.73e6	inactive
Vmat	3	4.14e5	3.70e5	1.18e6	1.20e6	inactive

Part of the list above, reformatted.
| gene | reagent | firefly reporter light, replicate 1 | firefly reporter light, replicate 2 | Renilla control light, replicate 1 | Renilla control light, replicate 2 | call |
| --- | --- | --- | --- | --- | --- | --- |
| Usp7 | 3 | 2.96e5 | 3.66e5 | 6.33e5 | 4.20e5 | inactive |
| CG11159 | 1 | 85279 | 86696 | 1.48e6 | 1.66e6 | inactive |
| CG15219 | 1 | 4.32e5 | 4.36e5 | 2.36e6 | 2.11e6 | inactive |
